From US8633207B2, “Quinazoline compounds and methods of use thereof” (Ambit Biosciences Corporation, priority 2010, dated 2014)

tested on: panel of distinct kinases, typically 359 or 386 kinases; experiment: Kinase selectivity score S(10) from competition binding panel; settings: number of kinases with inhibition of 90% or greater divided by number of distinct kinases tested
Method: Competition binding assays used herein were developed, validated and performed as described in Fabian et al., Nature Biotechnology 2005, 23, 329-336. Kinases were produced as fusions to T7 phage (See, Fabian et al. or WO04/015142) or alternatively, the kinases were expressed in HEK-293 cells and subsequently tagged with DNA for PCR detection (See, WO08/005,310). For the binding assays, streptavidin-coated magnetic beads were treated with biotinylated affinity ligands for 30 min at rt to generate affinity resins. The liganded beads were blocked with excess biotin and washed with blocking buffer (SeaBlock (Pierce), 1% BSA, 0.05% Tween 20, 1 mM DTT) to remove unbound ligand and to reduce non-specific binding. Binding reactions were assembled by combining kinase, liganded affinity beads, and test compounds in 1× binding buffer (20% SeaBlock, 0.17×PBS, 0.05% Tween 20, 6 mM DTT). Test compounds were prepared as 100× stocks in DMSO and rapidly diluted into the aqueous environment. DMSO was added to control assays lacking a test compound. Primary screen interactions were performed in polypropylene 384-well plates in a final volume of 34 μL, while Kd determinations were performed in polystyrene 96-well plates in a final volume of 135 μL. The assay plates were incubated at room temperature with shaking for 1 hour, long enough for binding reactions to reach equilibrium, and the affinity beads were washed extensively with wash buffer (1×PBS, 0.05% Tween 20) to remove unbound protein. The beads were then resuspended in elution buffer (1×PBS, 0.05% Tween 20, 2 μM non-biotinylated affinity ligand) and incubated at room temperature with shaking for 30 min. The kinase concentration in the eluates was measured by quantitative PCR. Each kinase was tested individually against each compound. Kds were determined using eleven serial threefold dilutions. A selectivity score, which is a quantitative measure of selectivity of a compound against a panel of enzymes, may be calculated for a compound by dividing the number of enzymes for which a compound meets a set criteria, (for example, a binding constant of 100 nM or less), by the total number of enzymes tested.

SMILES | S-Score: S(10) at 10 μM
Cc1cc(Nc2nc(C(F)(F)c3ccc(F)cn3)nc3c(N4CCOCC4=O)cccc23)n[nH]1 [Example 42, 4-(2-(difluoro(5-fluoropyridin-2-yl)methyl)-4-((5-methyl-1H-pyrazol-3-yl)amino)quinazolin-8-yl)morpholin-3-one] | B (0.3 < B ≦ 0.4)
Cc1cc(Nc2nc(C(F)(F)c3ccc(F)cn3)nc3c(C(N)=O)cccc23)n[nH]1 [Example 39, 2-(difluoro(5-fluoropyridin-2-yl)methyl)-4-((5-methyl-1H-pyrazol-3-yl)amino)quinazoline-8-carboxamide] | C (0.4 < C ≦ 0.5)
Cc1cc(Nc2nc(C(F)(F)c3ccc(F)cn3)nc3c(C(=O)NC4COC4)cccc23)n[nH]1 [Example 45, 2-(difluoro(5-fluoropyridin-2-yl)methyl)-4-((5-methyl-1H-pyrazol-3-yl)amino)-N-(oxetan-3-yl)quinazoline-8-carboxamide] | B (0.3 < B ≦ 0.4)
Cc1cc(Nc2nc(C(F)(F)c3ccc(F)cn3)nc3cc(C4CC4)ccc23)n[nH]1 [Example 9, 7-cyclopropyl-2-(difluoro(5-fluoropyridin-2-yl)methyl)-N-(5-methyl-1H-pyrazol-3-yl)quinazolin-4-amine] | C (0.4 < C ≦ 0.5)
Cc1cc(Nc2nc(C(F)(F)c3ccc(F)cn3)nc3c(C(=O)O)cccc23)n[nH]1 [Example 53, 2-(difluoro(5-fluoropyridin-2-yl)methyl)-4-((5-methyl-1H-pyrazol-3-yl)amino)quinazoline-8-carboxylic acid] | A (A ≦ 0.3)
Cc1cc(Nc2nc(C(=O)c3ccc(F)cn3)nc3ccccc23)n[nH]1 [Example 1, (5-fluoropyridin-2-yl)(4-(5-methyl-1H-pyrazol-3-ylamino)quinazolin-2-yl)methanone] | A (A ≦ 0.3)
Fc1ccc(C(F)(F)c2nc(Nc3nc[nH]n3)c3ccccc3n2)nc1 [Example 31, 2-(difluoro(5-fluoropyridin-2-yl)methyl)-N-(1H-1,2,4-triazol-3-yl)quinazolin-4-amine] | A (A ≦ 0.3)
Cc1cc(Nc2nc(C(F)(F)c3ccc(F)cn3)nc3c(N)cccc23)n[nH]1 [Example 50, 2-(difluoro(5-fluoropyridin-2-yl)methyl)-N4-(5-methyl-1H-pyrazol-3-yl)quinazoline-4,8-diamine] | D (D > 0.5)
Cc1cc(Nc2nc(C(F)(F)c3ccc(F)cn3)nc3c(O)cccc23)n[nH]1 [Example 46, 2-(difluoro(5-fluoropyridin-2-yl)methyl)-4-((5-methyl-1H-pyrazol-3-yl)amino)quinazolin-8-ol] | D (D > 0.5)
CCc1cccc2c(Nc3cc(C)[nH]n3)nc(C(F)(F)c3ccc(F)cn3)nc12 [Example 36, 2-(difluoro(5-fluoropyridin-2-yl)methyl)-8-ethyl-N-(5-methyl-1H-pyrazol-3-yl)quinazolin-4-amine] | A (A ≦ 0.3)
Fc1ccc(C(F)(F)c2nc(Nc3cc[nH]n3)c3ccccc3n2)nc1 [Example 4, 2-(difluoro(5-fluoropyridin-2-yl)methyl)-N-(1H-pyrazol-3-yl)quinazolin-4-amine] | A (A ≦ 0.3)
Cc1cc(Nc2nc(C(F)(F)c3ccc(F)cn3)nc3cc(C#N)ccc23)n[nH]1 [Example 8, 2-(difluoro(5-fluoropyridin-2-yl)methyl)-4-(5-methyl-1H-pyrazol-3-ylamino)quinazoline-7-carbonitrile] | A (A ≦ 0.3)
Cc1cc(Nc2nc(C(F)(F)c3ccc(F)cn3)nc3c(C)cccc23)n[nH]1 [Example 10, 2-(Difluoro(5-fluoropyridin-2-yl)methyl)-8-methyl-N-(5-methyl-1H-pyrazol-3-yl)quinazolin-4-amine] | C (0.4 < C ≦ 0.5)
Cc1cc(Nc2nc(C(F)(F)c3ccc(F)cn3)nc3c([N+](=O)[O-])cccc23)n[nH]1 [Example 49, 2-(difluoro(5-fluoropyridin-2-yl)methyl)-N-(5-methyl-1H-pyrazol-3-yl)-8-nitroquinazolin-4-amine] | A (A ≦ 0.3)
COc1ccc2c(Nc3cc(C)[nH]n3)nc(C(F)(F)c3ccc(F)cn3)nc2c1 [Example 6, 2-(difluoro(5-fluoropyridin-2-yl)methyl)-7-methoxy-N-(5-methyl-1H-pyrazol-3-yl)quinazolin-4-amine] | C (0.4 < C ≦ 0.5)
Cc1cc(Nc2nc(C(F)(F)c3ncc(F)cn3)nc3ccccc23)n[nH]1 [Example 3, 2-(difluoro(5-fluoropyrimidin-2-yl)methyl)-N-(5-methyl-1H-pyrazol-3-yl)quinazolin-4-amine] | D (D > 0.5)
Cc1cc(Nc2nc(C(F)(F)c3ccc(F)cn3)nc3c(OC(F)(F)F)cccc23)n[nH]1 [Example 34, 2-(difluoro(5-fluoropyridin-2-yl)methyl)-N-(5-methyl-1H-pyrazol-3-yl)-8-(trifluoromethoxy)quinazolin-4-amine] | A (A ≦ 0.3)
Cc1cc(Nc2nc(C(F)(F)c3ccc(F)cn3)nc3cc(Br)ccc23)n[nH]1 [Example 7, 7-bromo-2-(difluoro(5-fluoropyridin-2-yl)methyl)-N-(5-methyl-1H-pyrazol-3-yl)quinazolin-4-amine] | B (0.3 < B ≦ 0.4)
Cc1cc(Nc2nc(C(F)(F)c3ccc(F)cn3)nc3c(NC=O)cccc23)n[nH]1 [Example 44, N-(2-(difluoro(5-fluoropyridin-2-yl)methyl)-4-((5-methyl-1H-pyrazol-3-yl)amino)quinazolin-8-yl)formamide] | D (D > 0.5)
Cc1cc(Nc2nc(C(F)(F)c3ccc(F)cn3)nc3c(C(F)(F)F)cccc23)n[nH]1 [Example 33, 2-(difluoro(5-fluoropyridin-2-yl)methyl)-N-(5-methyl-1H-pyrazol-3-yl)-8-(trifluoromethyl)quinazolin-4-amine] | A (A ≦ 0.3)
COc1cc(Nc2nc(C(F)(F)c3ccc(F)cn3)nc3ccccc23)n[nH]1 [Example 5, 2-(difluoro(5-fluoropyridin-2-yl)methyl)-N-(5-methoxy-1H-pyrazol-3-yl)quinazolin-4-amine] | C (0.4 < C ≦ 0.5)
Cc1cc(Nc2nc(C(F)(F)c3ccc(F)cn3)nc3ccccc23)n[nH]1 [Example 2, 2-(difluoro(5-fluoropyridin-2-yl)methyl)-N-(5-methyl-1H-pyrazol-3-yl)quinazolin-4-amine] | C (0.4 < C ≦ 0.5)
Cc1cc(Nc2nc(C(F)(F)c3ccc(F)cn3)nc3c(C4CC4)cccc23)n[nH]1 [Example 51, 8-cyclopropyl-2-(difluoro(5-fluoropyridin-2-yl)methyl)-N-(5-methyl-1H-pyrazol-3-yl)quinazolin-4-amine] | A (A ≦ 0.3)
